In PubChem BioAssay AID1458 (National Center for Advancing Translational Sciences (NCATS), 2008):
Screen size: about 210,000 compounds; about 5,900 (2.8%) were called active. Inconclusive results (about 5%) are left out. Calls come from the whole dose curve; as a rule, active = well fitted activation curve with a large enough effect; inconclusive = small, poorly fitted or top-dose-only effect; inactive = no such curve, though single readings can be large or run the other way. This is a selection; strong and weak results do not stand in their true shares. Entries without a call were filed so in the source.

test: qHTS Assay for Enhancers of SMN2 Splice Variant Expression; conditions: HEK293 SMN2-luciferase splicing reporter, luminescence, 30-36 h; activity change, positive = activation: at 46.1 µM (top of the series) unless noted; note: nearly all actives have a fitted effect of over 55% in size; for activity change, positive = activation: % of control where 0% means no effect
Outline: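 HEK293 cells carry an SMN2 […]–luciferase reporter in which exon 7 inclusion puts luciferase in frame. Cells were plated 10-12 h before compound addition, then incubated 30-36 h at 37C. ONE-Glo luminescence was read; sodium butyrate at 4.5 mM final served as control.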
Potency is the fitted concentration of half-maximal effect.

| SMILES | activity change, positive = activation | Potency |
| --- | --- | --- |
| Clc1ccc(Cn2ccc(C3CC3)n2)cc1 | 49.1% | – |
| CC(=O)c1cccc(NC(=O)c2cnn3ccccc23)c1 | 114% | – |
| Cc1cc(C)nc(NC(=O)/C=C/c2ccc3c(c2)OCO3)c1 | 198% | – |
| CC12C(=O)N(Cc3ccco3)C(=O)C1C1c3ccccc3C2c2ccccc21 (configuration not stated) | inactive: -36.2% | – |
| CS(=O)(=O)N1CCC(c2noc(-c3ccc(C(F)(F)F)cc3)n2)CC1 | -73.3% | – |
| CCOc1cc(NC(=O)C2CCCO2)c(OCC)cc1NC(=O)C1CC1 (configuration not stated) | 43.2% | – |
| Cc1ccc2cc3cc(C(=O)N4CCCCC4C)oc3nc2c1 (configuration not stated) | – | active: 11.2 µM |
| COCCNC(=O)c1ccc(-n2c(SCc3cc(F)ccc3F)nc3ccccc3c2=O)cc1 | -28.4% | – |
| C/C(=N\Nc1ncc(Cl)cc1Cl)c1cccs1 | – | active: 11.2 µM |
| Cc1nc2ccc(-c3nc4cc(N)ccc4o3)cc2[nH]1 | – | active: 2.82 µM |
| CCOC(=O)/C(C#N)=C/c1ccc(OC)c(OC)c1 | 40.4% | – |
| CCc1nnc(NC(=O)c2c(O)c3cccc4c3n(c2=O)CC4)s1 | -27.9% | – |
| CC(C)(C)c1cc(CN2CCCCC2)cc(C(C)(C)C)c1O | 17.2% | – |
| CCN(CC)c1ccc(/C=C(/C#N)C(=O)NCc2ccccc2)o1 | 6.41% | – |
| CCc1ccc(C(=O)COC(=O)c2ccc(-c3nnc(-c4ccccc4)o3)cc2)cc1 | – | active: 7.94 µM |
| Cc1ccc([N+](=O)[O-])cc1N=Nc1c(-c2ccc([N+](=O)[O-])cc2)[nH]n(C(N)=S)c1=O | inactive: -70.7% | – |
| Nc1cc(C2CCCC2)nn1-c1ccccc1 | – | active: 20 µM |
| O=P1(Nn2cnnc2)C=C(c2ccccc2)OC(c2ccccc2)=C1 | 30.2% | – |
| Cc1ccc2nc(-c3ccc(NC(=O)CCS(=O)(=O)c4ccccc4)cc3)sc2c1 | -64.1% | – |
| O=C(NC1CCCC1)c1ccc(COCC(F)(F)F)o1 | 36.4% | – |
| Cc1cccc(-c2nnc(SCC(=O)N3CCCCC3)o2)c1 | – | active: 4.47 µM |
| CCn1c(Sc2ccc(N)cc2Cl)nc2ccccc21 | 49.1% | – |
| COc1cc(NC(=O)c2ccccc2Cl)ccc1NC(=O)c1cccs1 | – | active: 22.4 µM |

14 successive records from above, quoted:

| SMILES | activity change, positive = activation | Potency |
| --- | --- | --- |
| CC12C(=O)N(Cc3ccco3)C(=O)C1C1c3ccccc3C2c2ccccc21 (configuration not stated) | inactive: -36.2% | – |
| CS(=O)(=O)N1CCC(c2noc(-c3ccc(C(F)(F)F)cc3)n2)CC1 | -73.3% | – |
| CCOc1cc(NC(=O)C2CCCO2)c(OCC)cc1NC(=O)C1CC1 (configuration not stated) | 43.2% | – |
| Cc1ccc2cc3cc(C(=O)N4CCCCC4C)oc3nc2c1 (configuration not stated) | – | active: 11.2 µM |
| COCCNC(=O)c1ccc(-n2c(SCc3cc(F)ccc3F)nc3ccccc3c2=O)cc1 | -28.4% | – |
| C/C(=N\Nc1ncc(Cl)cc1Cl)c1cccs1 | – | active: 11.2 µM |
| Cc1nc2ccc(-c3nc4cc(N)ccc4o3)cc2[nH]1 | – | active: 2.82 µM |
| CCOC(=O)/C(C#N)=C/c1ccc(OC)c(OC)c1 | 40.4% | – |
| CCc1nnc(NC(=O)c2c(O)c3cccc4c3n(c2=O)CC4)s1 | -27.9% | – |
| CC(C)(C)c1cc(CN2CCCCC2)cc(C(C)(C)C)c1O | 17.2% | – |
| CCN(CC)c1ccc(/C=C(/C#N)C(=O)NCc2ccccc2)o1 | 6.41% | – |
| CCc1ccc(C(=O)COC(=O)c2ccc(-c3nnc(-c4ccccc4)o3)cc2)cc1 | – | active: 7.94 µM |
| Cc1ccc([N+](=O)[O-])cc1N=Nc1c(-c2ccc([N+](=O)[O-])cc2)[nH]n(C(N)=S)c1=O | inactive: -70.7% | – |
| Nc1cc(C2CCCC2)nn1-c1ccccc1 | – | active: 20 µM |

Next structures:

| SMILES | activity change, positive = activation | Potency |
| --- | --- | --- |
| Cc1ccccc1/C=N/Nc1nc2ccccc2[nH]1 | 82.4% | – |
| C=CCN1C(=O)NC(c2ccccc2)(C(F)(F)F)S/C1=C(\C#N)c1nnc(N2CCOCC2)n1-c1ccccc1 (configuration not stated) | 57.9% | – |
| CC1CCN(c2ccc(NC(=O)c3cccnc3)cc2)CC1 | – | active: 28.2 µM |
| Cc1ccc(Sc2ncccc2C(=O)O)cc1C | 34.4% | – |
| Cc1ccc(/C=C/c2nnc(-c3cccs3)o2)cc1 | – | active: 10 µM |
| CN1C(=O)C2(C(C#N)=C(N)Oc3n[nH]c(-c4ccc(Cl)cc4)c32)c2ccccc21 (configuration not stated) | 29.4% | – |
| Cc1cc(/C=C2/SC(=S)N(c3ccc([N+](=O)[O-])cc3)C2=O)c(C)n1-c1cccnc1 | inactive: -101% | – |
| CCOC(=O)COc1ccc2ccccc2c1/C=C/[N+](=O)[O-] | -112% | – |
| NC(=O)c1c(NC(=O)c2cc3ccccc3o2)sc2c1CCC2 | – | active: 2.24 µM |
| C(=N\Nc1nc2ccccc2[nH]1)/c1ccccc1 | – | active: 12.6 µM |
| CC1=C(Sc2ccccn2)C(=O)NC(C)(C)C1 | 41.4% | – |
| CC(=O)c1ccc(N2CCN(C(=S)Nc3ccccc3C(F)(F)F)CC2)cc1 | inactive: -33.9% | – |
| COC(=O)c1ccc(-c2ncc(-c3cccc4ccccc34)o2)cc1 | – | active: 11.2 µM |
| CN1/C(=C\C=[N+](C)c2ccccc2)C(C)(C)c2ccccc21 | -42% | – |
| O=C(O)CCCN1C(=O)/C(=C/c2ccc(-c3nc4ccccc4s3)o2)SC1=S | – | active: 17.8 µM |
| O=C(Nc1ccccc1)N1CC[C@@]2(CCCN(C(=O)c3csnn3)C2)C1 | inactive: -18.6% | – |
| C/C=C/c1ccc(OCCCNC2CCCC2)c(OC)c1 | 33.8% | – |
| O=C(N=Nc1c(O)[nH]c2ccccc12)c1ccc2c(c1)OCO2 | – | active: 11.2 µM |
| O=[N+]([O-])c1ccc(/C=C/c2nc3ccc([N+](=O)[O-])cc3[nH]2)cc1 | -40.1% | – |
| O=C(Nc1ccccc1C(=O)N1CCOCC1)C1CCCO1 (configuration not stated) | 40.8% | – |
| O=C(/C=C/c1ccc2c(c1)OCO2)Nc1cccnc1 | – | active: 12.6 µM |
| Cc1noc(C)c1S(=O)(=O)N1CCC(C(=O)N2CCN(c3ccccc3Cl)CC2)CC1 | inactive: -53.3% | – |
| CC(C)CCn1c(CN2CCN(Cc3ccccc3)CC2)nc2c1c(=O)[nH]c(=O)n2C | 35.3% | – |

| SMILES | activity change, positive = activation | Potency |
| --- | --- | --- |
| O=C(/C=C\c1cccs1)N1CCN(Cc2ccc3c(c2)OCO3)CC1 | inactive: -55.6% | – |
| O=c1c2cnn(-c3ccccc3)c2nc(-c2ccco2)n1-c1ccccc1 | -47.9% | – |
| COc1cccc(C(=O)Nc2ccc(C(F)(F)F)n(C)c2=O)c1 | 185% | – |
| O=C(Nc1ccc(CN2CCOCC2)cc1)c1cccs1 | – | active: 12.6 µM |
| Cc1nn(C)cc1CN(C)C(=O)c1nn2c(c1Cl)NC(c1cccs1)CC2C(F)(F)F (configuration not stated) | -36.3% | – |
| CN1C(=O)N(C)C2=NNC=NC2(O)C1=O (configuration not stated) | inactive: -74% | – |
| COC(=O)C(C)N1C(=O)S/C(=C/c2cc(C)n(-c3ccccn3)c2C)C1=O (configuration not stated) | inactive: -41.9% | – |
| O=C(CCC(=O)N1CCN(S(=O)(=O)c2ccc(Cl)cc2)CC1)NC1CCCc2ccccc21 (configuration not stated) | -30.3% | – |
| COc1ccc(C(=O)Nc2sc(C)c(C)c2CN2CCOCC2)cc1 | – | active: 12.6 µM |
| Cc1c(C(=O)OCCOc2ccccc2)[nH]c2c1C(=O)CCC2 | – | active: 3.55 µM |
| COc1ccc(C(=O)/C(=C/c2cccs2)c2nc3ccccc3o2)cc1 | inactive: -71.8% | – |
| COc1ccc(N2C(=O)CC(N3CCC(O)(c4ccc(Cl)cc4)CC3)C2=O)cc1 (configuration not stated) | 33.4% | – |
| CC(=O)O[C@@]1(C(C)=O)CCC2C3CC(C)C4=CC(=O)CC[C@@]4(C)C3CC[C@]21C (some centres not stated) | inactive: -68.9% | – |
| CN(C)C(=S)Nc1ccc([N+](=O)[O-])cc1 | 17.7% | – |
| CCC(=O)Oc1c(C(=O)CC)cc2c(C)cc(=O)oc2c1C | 35.3% | – |
| Cc1cccc(-c2noc(CN(C(=O)c3ccc(C)c(C)c3)C(C)C)n2)c1 | inactive: -71% | – |
| O=C(NCc1cccc2ccccc12)[C@H]1C[C@@H]1[C@H](NP(=O)(c1ccccc1)c1ccccc1)c1ccccc1 | inactive: -30.8% | – |
| COc1cccc(-c2n[nH]c3c2CCC3)c1 | 30.1% | – |
| COc1ccc(OC)c(Nc2nc(-c3ccc(O)c(O)c3)cs2)c1 | – | active: 17.8 µM |
| O=C(CCSc1ccccc1)Nc1nccs1 | 45.2% | – |
| O=C(O)CCc1ccc(-c2ccc(Cl)cc2)n1Cc1ccco1 | 17.3% | – |
